Data reported in paper PMC3843068.
These are yes or no findings as the source states them, for the method shown. In cells and extracts the contact can be indirect. A yes stands for co-enrichment or nearness to the bait. Other partners may have been found. Sequences can lack the tags named with a protein.

The chains behind the UniProt entries cited, without tags or fusion partners.
UniProt O75317: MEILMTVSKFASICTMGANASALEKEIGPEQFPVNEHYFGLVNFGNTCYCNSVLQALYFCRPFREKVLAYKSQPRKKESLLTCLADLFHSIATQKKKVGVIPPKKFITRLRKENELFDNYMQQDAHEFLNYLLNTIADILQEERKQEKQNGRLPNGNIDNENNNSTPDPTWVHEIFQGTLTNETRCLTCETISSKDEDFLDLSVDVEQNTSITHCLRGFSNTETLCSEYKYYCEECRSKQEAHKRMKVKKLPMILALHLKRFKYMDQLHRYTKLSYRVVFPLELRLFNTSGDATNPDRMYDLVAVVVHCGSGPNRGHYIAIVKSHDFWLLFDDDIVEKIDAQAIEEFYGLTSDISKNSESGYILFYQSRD
UniProt Q8TAF3: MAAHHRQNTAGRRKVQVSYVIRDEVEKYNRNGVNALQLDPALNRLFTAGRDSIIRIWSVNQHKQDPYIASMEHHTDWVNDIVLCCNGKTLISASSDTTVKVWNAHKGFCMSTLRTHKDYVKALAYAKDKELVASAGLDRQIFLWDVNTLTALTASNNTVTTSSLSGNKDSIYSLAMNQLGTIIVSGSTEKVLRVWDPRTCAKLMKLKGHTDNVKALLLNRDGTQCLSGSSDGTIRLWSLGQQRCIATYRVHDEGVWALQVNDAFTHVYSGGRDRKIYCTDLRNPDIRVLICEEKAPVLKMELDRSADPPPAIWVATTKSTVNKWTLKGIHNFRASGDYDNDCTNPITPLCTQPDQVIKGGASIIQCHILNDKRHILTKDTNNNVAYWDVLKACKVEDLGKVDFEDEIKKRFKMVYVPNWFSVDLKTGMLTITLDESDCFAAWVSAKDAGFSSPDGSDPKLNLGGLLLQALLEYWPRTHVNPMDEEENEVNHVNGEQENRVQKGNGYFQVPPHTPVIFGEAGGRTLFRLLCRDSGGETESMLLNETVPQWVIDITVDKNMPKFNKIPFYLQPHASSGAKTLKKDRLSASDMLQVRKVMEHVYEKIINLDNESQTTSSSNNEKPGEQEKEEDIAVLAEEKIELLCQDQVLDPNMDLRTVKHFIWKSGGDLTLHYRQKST
UniProt Q14160: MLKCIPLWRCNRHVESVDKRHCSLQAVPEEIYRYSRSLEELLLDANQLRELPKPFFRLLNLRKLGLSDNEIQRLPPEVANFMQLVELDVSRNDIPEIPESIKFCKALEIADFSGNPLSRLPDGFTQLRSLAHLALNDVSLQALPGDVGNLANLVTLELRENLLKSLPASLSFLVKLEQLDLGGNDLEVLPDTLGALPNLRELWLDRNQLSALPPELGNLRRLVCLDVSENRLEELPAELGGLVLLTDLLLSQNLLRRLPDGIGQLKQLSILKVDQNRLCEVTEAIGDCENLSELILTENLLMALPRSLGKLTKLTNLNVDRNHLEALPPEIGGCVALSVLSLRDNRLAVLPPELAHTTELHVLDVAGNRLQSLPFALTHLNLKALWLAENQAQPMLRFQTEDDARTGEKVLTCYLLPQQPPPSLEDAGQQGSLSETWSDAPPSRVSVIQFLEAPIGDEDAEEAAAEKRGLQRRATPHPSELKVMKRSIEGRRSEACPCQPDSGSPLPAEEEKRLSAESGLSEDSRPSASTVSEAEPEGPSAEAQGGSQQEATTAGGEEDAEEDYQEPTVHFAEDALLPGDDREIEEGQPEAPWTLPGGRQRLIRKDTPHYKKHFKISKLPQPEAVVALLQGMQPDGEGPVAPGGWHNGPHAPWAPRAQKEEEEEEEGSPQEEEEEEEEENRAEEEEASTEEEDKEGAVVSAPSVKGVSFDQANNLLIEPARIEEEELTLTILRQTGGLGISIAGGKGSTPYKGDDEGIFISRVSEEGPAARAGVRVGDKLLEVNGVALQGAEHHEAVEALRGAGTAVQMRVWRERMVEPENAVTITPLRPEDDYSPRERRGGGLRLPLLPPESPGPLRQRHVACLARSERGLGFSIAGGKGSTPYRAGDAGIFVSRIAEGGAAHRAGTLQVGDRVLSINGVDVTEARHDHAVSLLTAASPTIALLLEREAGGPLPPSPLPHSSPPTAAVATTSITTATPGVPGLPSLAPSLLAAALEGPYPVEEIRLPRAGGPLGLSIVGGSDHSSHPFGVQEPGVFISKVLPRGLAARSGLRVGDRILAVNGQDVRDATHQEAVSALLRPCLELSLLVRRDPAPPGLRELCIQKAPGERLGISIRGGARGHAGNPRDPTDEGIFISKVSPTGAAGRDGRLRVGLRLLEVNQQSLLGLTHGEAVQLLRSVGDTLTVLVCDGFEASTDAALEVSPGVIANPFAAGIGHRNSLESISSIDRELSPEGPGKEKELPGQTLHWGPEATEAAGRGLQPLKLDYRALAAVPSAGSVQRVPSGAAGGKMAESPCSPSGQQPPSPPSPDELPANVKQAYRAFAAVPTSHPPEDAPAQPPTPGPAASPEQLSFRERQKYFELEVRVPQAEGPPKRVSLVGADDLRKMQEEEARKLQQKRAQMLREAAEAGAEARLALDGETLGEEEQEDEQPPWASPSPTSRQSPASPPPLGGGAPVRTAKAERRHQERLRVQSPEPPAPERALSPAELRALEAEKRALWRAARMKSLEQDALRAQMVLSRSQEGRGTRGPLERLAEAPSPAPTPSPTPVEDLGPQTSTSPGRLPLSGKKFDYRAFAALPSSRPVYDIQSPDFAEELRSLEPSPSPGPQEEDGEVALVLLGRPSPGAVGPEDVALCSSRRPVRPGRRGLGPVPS

T1: SFB-triple-tagged PHLPP1 full-length (UniProt O60346)
T1 sequence: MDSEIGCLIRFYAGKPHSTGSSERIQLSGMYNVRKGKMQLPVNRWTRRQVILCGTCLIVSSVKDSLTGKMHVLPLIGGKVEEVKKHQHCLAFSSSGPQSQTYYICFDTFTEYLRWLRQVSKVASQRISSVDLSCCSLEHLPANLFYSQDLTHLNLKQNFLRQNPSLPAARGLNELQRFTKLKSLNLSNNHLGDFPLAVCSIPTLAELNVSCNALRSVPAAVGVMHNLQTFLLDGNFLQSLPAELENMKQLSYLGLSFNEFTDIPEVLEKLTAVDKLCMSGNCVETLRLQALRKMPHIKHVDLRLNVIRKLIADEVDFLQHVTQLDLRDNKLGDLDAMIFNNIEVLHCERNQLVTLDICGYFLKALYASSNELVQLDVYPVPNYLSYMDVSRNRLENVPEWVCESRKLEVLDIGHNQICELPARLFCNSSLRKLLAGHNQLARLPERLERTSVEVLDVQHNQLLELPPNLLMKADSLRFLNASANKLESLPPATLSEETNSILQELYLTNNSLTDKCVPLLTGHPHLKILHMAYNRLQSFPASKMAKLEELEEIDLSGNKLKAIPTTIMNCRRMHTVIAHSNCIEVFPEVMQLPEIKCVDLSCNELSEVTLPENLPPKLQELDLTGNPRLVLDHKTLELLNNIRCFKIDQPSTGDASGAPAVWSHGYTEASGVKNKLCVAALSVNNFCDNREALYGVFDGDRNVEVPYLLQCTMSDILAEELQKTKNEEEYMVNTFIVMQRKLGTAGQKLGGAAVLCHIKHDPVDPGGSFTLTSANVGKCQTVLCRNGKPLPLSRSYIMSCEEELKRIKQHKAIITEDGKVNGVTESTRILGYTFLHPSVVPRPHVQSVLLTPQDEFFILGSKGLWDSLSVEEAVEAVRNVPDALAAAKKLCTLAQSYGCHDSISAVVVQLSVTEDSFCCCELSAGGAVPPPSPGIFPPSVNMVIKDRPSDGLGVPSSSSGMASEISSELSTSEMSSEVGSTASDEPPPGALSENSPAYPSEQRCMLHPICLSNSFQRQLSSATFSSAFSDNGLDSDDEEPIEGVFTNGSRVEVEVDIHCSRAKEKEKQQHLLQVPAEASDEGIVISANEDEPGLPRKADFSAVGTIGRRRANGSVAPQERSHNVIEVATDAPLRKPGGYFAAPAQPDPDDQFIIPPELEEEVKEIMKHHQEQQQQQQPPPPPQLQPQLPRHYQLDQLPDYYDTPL

B1: SUGT1 (protein, UniProt Q9Y2Z0 1-365)
chain: MAAAAAGTATSQRFFQSFSDALIDEDPQAALEELTKALEQKPDDAQYYCQRAYCHILLGNYCVAVADAKKSLELNPNNSTAMLRKGICEYHEKNYAAALETFTEGQKLDIETGFHRVGQAGLQLLTSSDPPALDSQSAGITGADANFSVWIKRCQEAQNGSESEVWTHQSKIKYDWYQTESQVVITLMIKNVQKNDVNVEFSEKELSALVKLPSGEDYNLKLELLHPIIPEQSTFKVLSTKIEIKLKKPEAVRWEKLEGQGDVPTPKQFVADVKNLYPSSSPYTRNWDKLVGEIKEEEKNEKLEGDAALNRLFQQIYSDGSDEVKRAMNKSFMESGGTVLSTNWSDVGKRKVEINPPDDMEWKKY

Biological target: T1, SFB-triple-tagged PHLPP1 full-length
Assay: affinity purification with mass spectrometry; tandem affinity purification of SFB-PHLPP1 from transfected 293T lysate (NETN buffer: 20 mM Tris-HCl pH 8.0, 100 mM NaCl, 1 mM EDTA, 0.5% Nonidet P-40): streptavidin-Sepharose beads, biotin elution, S-protein-agarose beads, 4 °C; SDS-PAGE and mass spectrometry

Molecule | binding
endogenous USP12 (from UniProt O75317 1-370) (enzyme) | binds
endogenous WDR48 (from UniProt Q8TAF3 1-677) | binds
hScrib (from UniProt Q14160 1-1655) | binds
B1 | binds
